No constants are given. Whether binding was seen depends on the method and setting. Binding seen in cells or lysates may run through a third protein. Some binding calls cover weakened binding; strength is not graded here. Tags and fused reporters may be left off the sequences shown. Blank lines part the entries; values can stand above or below the binder they belong to.
Key:
[1] = biological target: T1, GST-OsGF14c (rice (Oryza sativa)) (UniProt Q6ZKC0); experiment: pull-down; GST fusion or GST on glutathione agarose resin, induced His-OsSAP5 added, 2 h at 4°C, 25 mM Tris-HCl pH 8.0, 150 mM NaCl, 1/2,000 NP-40, 1/20 glycerol; blots with anti-His and anti-GST
T1 sequence: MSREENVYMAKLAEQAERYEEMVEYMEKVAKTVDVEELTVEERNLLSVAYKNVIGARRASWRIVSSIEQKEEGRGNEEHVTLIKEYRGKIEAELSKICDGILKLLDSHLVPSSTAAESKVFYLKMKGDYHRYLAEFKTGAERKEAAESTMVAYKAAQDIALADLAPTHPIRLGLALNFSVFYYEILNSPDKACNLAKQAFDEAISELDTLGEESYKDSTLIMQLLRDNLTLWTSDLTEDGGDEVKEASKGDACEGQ

[2] = biological target: T2, OsGF14c-nLuc (rice (Oryza sativa)) (UniProt Q6ZKC0); experiment: split reporter; luciferase complementation imaging (LCI) in N. benthamiana leaves, 48 h after agroinfiltration, 1 mM luciferin, CCD imaging
T2 sequence: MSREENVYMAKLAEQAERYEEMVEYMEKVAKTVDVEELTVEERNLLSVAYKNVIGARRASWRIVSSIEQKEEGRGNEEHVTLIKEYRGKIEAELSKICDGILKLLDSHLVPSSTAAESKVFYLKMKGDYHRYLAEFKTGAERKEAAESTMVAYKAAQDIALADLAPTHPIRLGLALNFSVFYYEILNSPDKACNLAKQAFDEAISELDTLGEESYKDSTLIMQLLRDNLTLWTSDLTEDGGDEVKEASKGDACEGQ

[3] = biological target: T3, OsGF14c-GFP (rice (Oryza sativa)) (UniProt Q6ZKC0); experiment: co-IP; rice protoplasts co-transfected with p35s::OsGF14c-GFP and p35s::OsSAP5-HA, anti-GFP affinity beads 2 h at 4°C, blots with anti-HA and anti-GFP
T3 sequence: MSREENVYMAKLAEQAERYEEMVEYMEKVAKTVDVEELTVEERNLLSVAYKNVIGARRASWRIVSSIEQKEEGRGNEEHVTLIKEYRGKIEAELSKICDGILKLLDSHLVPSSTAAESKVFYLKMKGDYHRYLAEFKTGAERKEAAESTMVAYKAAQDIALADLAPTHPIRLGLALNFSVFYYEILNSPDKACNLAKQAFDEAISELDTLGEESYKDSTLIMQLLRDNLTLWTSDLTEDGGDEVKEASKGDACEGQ

[4] = biological target: T4, OsGF14c in pSPYNE-35s (BiFC fusion) (rice (Oryza sativa)) (UniProt Q6ZKC0); experiment: split reporter; BiFC (split YFP, pSPYCE-35s and pSPYNE-35s) in N. benthamiana leaf epidermal cells, confocal microscopy
T4 sequence: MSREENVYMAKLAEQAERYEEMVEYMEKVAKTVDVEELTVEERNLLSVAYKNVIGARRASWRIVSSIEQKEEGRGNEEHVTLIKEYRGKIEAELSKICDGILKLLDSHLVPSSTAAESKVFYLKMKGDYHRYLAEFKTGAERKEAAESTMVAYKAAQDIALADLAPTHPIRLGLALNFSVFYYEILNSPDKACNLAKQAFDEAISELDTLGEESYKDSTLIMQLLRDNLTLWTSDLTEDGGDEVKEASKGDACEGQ

B1: His-OsSAP5 (protein, UniProt Q6H754 1-154)
chain: MAEEQRWQEGCHRLCANNCGFFGSPATLDLCSKCYRDRQGRESTAPVVVAAAASACPATHPSSPSSSSCPAFLPSSTAAEAGVVVAAVAKASRCASCRKRVGLTGFACRCGGTFCGAHRYPERHACGFDFKAAGRDAIARANPLIKGDKLKDKI
binding [1]: binds

B4: OsSAP5 in pSPYCE-35s (BiFC fusion) (protein, UniProt Q6H754 1-154)
chain: MAEEQRWQEGCHRLCANNCGFFGSPATLDLCSKCYRDRQGRESTAPVVVAAAASACPATHPSSPSSSSCPAFLPSSTAAEAGVVVAAVAKASRCASCRKRVGLTGFACRCGGTFCGAHRYPERHACGFDFKAAGRDAIARANPLIKGDKLKDKI
binding [4]: binds

Now from value to binder:

binding [2]: binds
B2: cLuc-OsSAP5 (protein, UniProt Q6H754 1-154)
chain: MAEEQRWQEGCHRLCANNCGFFGSPATLDLCSKCYRDRQGRESTAPVVVAAAASACPATHPSSPSSSSCPAFLPSSTAAEAGVVVAAVAKASRCASCRKRVGLTGFACRCGGTFCGAHRYPERHACGFDFKAAGRDAIARANPLIKGDKLKDKI

binding [3]: binds
B3: OsSAP5-HA (protein, UniProt Q6H754 1-154)
chain: MAEEQRWQEGCHRLCANNCGFFGSPATLDLCSKCYRDRQGRESTAPVVVAAAASACPATHPSSPSSSSCPAFLPSSTAAEAGVVVAAVAKASRCASCRKRVGLTGFACRCGGTFCGAHRYPERHACGFDFKAAGRDAIARANPLIKGDKLKDKI
